PubChem BioAssay AID504834 (National Center for Advancing Translational Sciences (NCATS), 2011)
Screen size: about 320,000 compounds; about 22,000 (6.9%) were called active. Inconclusive results, whose numbers are uncertain, are shown with a selection of clear calls. Calls follow the shape of the dose curve; as a rule, active = well fitted inhibition curve with a large enough effect; inconclusive = small, poorly fitted or top-dose-only effect, or another doubt; inactive = no such curve, though single readings can be large or run the other way. Where the call is inconclusive, the potency comes from a doubtful curve fit.

Experiment: Primary qHTS for delayed death inhibitors of the malarial parasite plastid, 96 hour incubation
Settings: P. falciparum luciferase reporter growth; series mostly up to 28.7 µM
Outline: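 P. falciparum expressing integrated firefly luciferase, in erythrocytes at 2% hematocrit, 0.05% parasitemia, incubated with compounds 96 h at 37 C, 5% CO2. Growth inhibition read as loss of luminescence; two-generation exposure targets delayed-death apicoplast inhibitors.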
Potency is read from the fitted curve at half-maximal effect.

Structure (SMILES) | Potency
COc1ccc(C)cc1N=Nc1ccc(O)c2ncccc12 | inconclusive: 1.85 µM [inhibitor, single point]
CC(=O)Nc1ccc(N2C(C(C)=O)=NN(c3ccccc3)C2c2cccs2)cc1 (centres undefined) | inconclusive: 1.47 µM [inhibitor, full curve]
O=C1C2C3c4ccccc4C(c4ccccc43)C2C(=O)N1c1nc(-c2ccccc2)cs1 (centres undefined) | inactive
CN(Cc1nc2ccc(F)cc2[nH]1)C(=O)C1CCC(=O)N(C2CC2)C1 (centres undefined) | inconclusive: 16.5 µM [inhibitor, single point]
Cc1ccc(OCc2nnc(N)s2)cc1C | inactive
Cc1cc(CNCc2cn(C)nc2-c2ccc(Oc3ccccc3)cc2)on1 | active: 11.7 µM
CCCN1CCC2(CC1)NC(CO)(CO)CO2 | inconclusive: 5.22 µM [inhibitor, partial curve]
CSCCC(NS(=O)(=O)c1ccc(C)cc1)C(=O)N1CC=C(c2ccccc2)CC1 (centres undefined) | inconclusive: 8.28 µM [inhibitor, partial curve]
O=C(CCCC(=O)OCC(Cl)=C(Cl)Cl)Nc1cccc2ccccc12 | inconclusive: 18.5 µM [inhibitor, single point]
O=C(O)c1ccc(N2C(=O)/C(=C/C=C/c3ccccc3)SC2=S)cc1 | inactive
COc1ccccc1N1C(=O)C2CC=CC(C)C2C1=O (centres undefined) | inconclusive: 10.4 µM [inhibitor, single point]
O=C(NCCCN1CCOCC1)c1ccc(Sc2ccccc2Cl)c([N+](=O)[O-])c1 | inconclusive: 2.62 µM [inhibitor, single point]
NC(=O)CSc1nnc(NC(=O)c2cccc(S(=O)(=O)N3CCCCC3)c2)s1 | inconclusive: 18.5 µM [inhibitor, single point]
O=C(C1CCCCC1)N1CCCC(c2nc(-c3ccc(F)cc3)no2)C1 (centres undefined) | inconclusive: 0.294 µM [inhibitor, full curve]
COc1cccc(NC(=O)CN(C)C(=O)c2cn(-c3ccccc3)nc2-c2cccnc2)c1 | inconclusive: 13.1 µM [inhibitor, partial curve, poor fit]
CCn1c(O)c(/C=C2\C=Nc3ccccc32)sc1=O | active: 7.38 µM
c1ccc2[nH]c(CN3CCN(c4ncnc5c4oc4ccccc45)CC3)nc2c1 | inactive
CCC(=NCCc1c(C)[nH]c2ccccc12)C1=C(O)CC(c2ccccc2)CC1=O (centres undefined) | inconclusive: 11.7 µM [inhibitor, single point]
O=C(CC(Cc1ccccc1)C(=O)O)Nc1cccc(C(F)(F)F)c1 (centres undefined) | inconclusive: 11.7 µM [inhibitor, single point]
O=C(CSc1ncn[nH]1)N(C1CCCCC1)C1CCCCC1 | inconclusive: 7.38 µM [inhibitor, partial curve]
CCn1c(=O)cc(SCC(=O)N2CCN(c3ccccn3)CC2)c2ccccc21 | inconclusive: 16.5 µM [inhibitor, single point]
O=S(=O)(c1ccc(N2CCN(Cc3ccc4c(c3)OCO4)CC2)nc1)N1CCOCC1 | inconclusive: 7.38 µM [inhibitor, partial curve, poor fit]
O=C1CCc2cc(S(=O)(=O)N3CCC(C(=O)NC4CCCc5ccccc54)CC3)ccc2N1 (centres undefined) | inconclusive: 10.4 µM [inhibitor, partial curve, poor fit]

Structure (SMILES) | Potency
CCCc1c(C)nc(N2CCN(c3cccc(OC)c3)CC2)[nH]c1=O | inactive
O=C(CC1Nc2c3ccccc3nc(=S)n2C1=O)NC1CCCCC1 (centres undefined) | inconclusive: 0.465 µM [inhibitor, full curve, poor fit]
CCCn1cc(S(=O)(=O)c2ccc(F)cc2)c(=O)c2cc(OCC)ccc21 | inconclusive: 14.7 µM [inhibitor, partial curve, poor fit]
Cn1c(=O)c2ncn(CC(=O)Nc3cc(C(F)(F)F)ccc3N3CCOCC3)c2n(C)c1=O | inconclusive: 0.657 µM [inhibitor, full curve, poor fit]
CCOc1ccc(N2C(=O)/C(=C\c3ccccc3OC)S(=O)(=O)C2c2cccc([N+](=O)[O-])c2)cc1 (centres undefined) | inconclusive: 18.5 µM [inhibitor, single point]
COc1cc(/C=N/NC(=O)c2cc3c(ccc4ccccc43)o2)cc(OC)c1O | inconclusive: 9.28 µM [inhibitor, single point]
COc1cccc(COC(=O)c2nn(-c3ccccc3)nc2N)c1 | inactive
COc1ccc(OCCOC(=O)c2cccc(-n3cnnn3)c2)cc1 | active: 14.7 µM
Cc1ccc(S(=O)(=O)N2CCN(Cc3ccccc3C(F)(F)F)CC2)cc1 | inconclusive: 18.5 µM [inhibitor, single point]
CCOC(=O)c1cnn2c(N)c(C#N)nnc12 | inconclusive: 5.86 µM [inhibitor, partial curve]
CCc1ccc(S(=O)(=O)/N=C2\C=C(Nc3ccc(O)cc3)C(=O)c3ccccc32)cc1 | inconclusive: 0.37 µM [inhibitor, full curve]
Cc1ccc(C(=O)N/N=C\c2ccc([N+](=O)[O-])o2)cn1 | active: 1.85 µM
CCOC(=O)c1cc2sccc2n1Cc1ccccc1 | inconclusive: 2.08 µM [inhibitor, full curve, poor fit]
CCCC(=O)Nc1nnc(/C=C/c2ccccc2)s1 | inconclusive: 16.5 µM [inhibitor, single point]
O=C1OC(c2ccccc2)=C/C1=C\N1CCOCC1 | inactive
O=C(CCCn1cnc([N+](=O)[O-])n1)Nc1cccc(O)c1 | inactive
N#C/C(=C\c1ccccc1)C(=O)Nc1nncs1 | inconclusive: 13.1 µM [inhibitor, single point]
c1ccc(CN2C3=NCCN3c3ccccc32)cc1 | inconclusive: 18.5 µM [inhibitor, single point]
CC(C)(CCl)C(=O)Nc1ccc(Sc2ccc(F)cc2)cc1 | inconclusive: 0.104 µM [inhibitor, full curve, poor fit]
COCc1c(C(=O)N/N=C/C2CC=CCC2)nnn1-c1nonc1N (centres undefined) | inconclusive: 0.0033 µM [inhibitor, full curve, poor fit]
CCn1c2ccccc2c2nnc(SCC(=O)Nc3c(C)n(C)n(-c4ccccc4)c3=O)nc21 | active: 11.7 µM
O=C(Nc1ccc(F)c(Cl)c1)C1CCN(S(=O)(=O)c2cccnc2)CC1 | inconclusive: 18.5 µM [inhibitor, single point]
COCCn1c(SCC(=O)N2CCN(c3ccccc3)CC2)nc2c(c1=O)SC(C)C2 (centres undefined) | inconclusive: 9.28 µM [inhibitor, partial curve, poor fit]

Three entries from above in another layout.
Structure (SMILES),Potency
CCOc1ccc(N2C(=O)/C(=C\c3ccccc3OC)S(=O)(=O)C2c2cccc([N+](=O)[O-])c2)cc1 (centres undefined),"inconclusive: 18.5 µM [inhibitor, single point]"
COc1cc(/C=N/NC(=O)c2cc3c(ccc4ccccc43)o2)cc(OC)c1O,"inconclusive: 9.28 µM [inhibitor, single point]"
COc1cccc(COC(=O)c2nn(-c3ccccc3)nc2N)c1,inactive

More structures

Structure (SMILES) | Potency
CNc1nc(N)c(C(=O)C23CC4CC(CC(C4)C2)C3)s1 | inactive
CCc1nnc(NC(=O)CSc2nnc3nc(C)cc(C)n23)s1 | active: 2.08 µM
COc1ccc2c(c1)Cc1sc(NC(=O)c3ccccc3)nc1-2 | active: 2.94 µM
Cc1cccc(-c2cc(C(=O)Nc3c(C)n(C)n(-c4ccccc4)c3=O)c3ccccc3n2)c1 | inconclusive: 10.4 µM [inhibitor, single point]
O=C(NC(=S)NCCc1ccccc1)c1ccccc1F | inactive
O=C(Nc1c2c(nn1-c1ccccc1)CS(=O)C2)c1ccc2c(c1)OCO2 (centres undefined) | inactive
COc1ccccc1NC(=O)c1ccc(NC(=O)c2nc3nccc(C)n3n2)cc1 | inconclusive: 7.38 µM [inhibitor, partial curve, poor fit]
CCOC(=O)N1CCC(Nc2c(NCCN3CCN(c4ccccc4F)CC3)c(=O)c2=O)CC1 | inconclusive: 18.5 µM [inhibitor, single point]
O=C(CNC(=O)c1cccc(F)c1)OCC(=O)N1CCCCC1 | inactive
CCOC(=O)C1=NN(c2ccc(C)cc2)C2(S1)SC(C(C)=O)=C(C)N2c1ccccc1 (centres undefined) | inconclusive: 11.7 µM [inhibitor, single point]
Cc1ccc(NC(=O)c2cc(F)c(F)cc2Cl)nc1 | inactive
Cc1cccc(NC(=O)N2C[C@H]3C[C@@H](C2)c2cccc(=O)n2C3)c1 | inactive
CCCCCC(=O)Nc1ccc(C(=O)CN2C(=O)NC3(CCCCCC3)C2=O)cc1 | inconclusive: 9.28 µM [inhibitor, single point]
COc1cc(CCC(=O)NCc2ccc(Cl)cc2)cc(OC)c1OC | inconclusive: 13.1 µM [inhibitor, partial curve, poor fit]
Cc1cc(Cl)ccc1NC(=S)NCCc1ccc(Cl)cc1 | inconclusive: 16.5 µM [inhibitor, single point]
CCOC(=O)c1ccc(NC(=S)Nc2cccc(C)n2)cc1 | inconclusive: 1.31 µM [inhibitor, full curve, poor fit]
O=C(c1ccc(Cl)nc1)N1CCN(S(=O)(=O)c2ccc(Cl)cc2)CC1 | inactive
CCC(C)C(=O)Nc1nc(C)c(-c2csc(Nc3ccccc3OC)n2)s1 (centres undefined) | active: 11.7 µM
O=C(NCc1ccccc1)C(=O)NCC1CCCN1S(=O)(=O)c1cccs1 (centres undefined) | inconclusive: 18.5 µM [inhibitor, single point]
CC(C)c1ccc(OCC(=O)N2CCN(c3ccccn3)CC2)c(Br)c1 | inconclusive: 18.5 µM [inhibitor, single point]
Cc1cc(/C=C(\C#N)C(=O)NCc2cccs2)c(C)n1-c1ccccc1F | inactive
Cc1ccc(N(CCC#N)C(=O)CN2C(=O)NC(Cc3ccccc3)C2=O)cc1 (centres undefined) | inactive
CCC(C)c1ccccc1N1CC(C(=O)N2CCN(S(=O)(=O)c3cccc([N+](=O)[O-])c3)CC2)CC1=O (centres undefined) | inconclusive: 7.38 µM [inhibitor, partial curve]
